Assay results published in patent US7183061B2, “Method of expressing Heliothis ecdysone receptor fusion protein” (Syngenta Limited, priority 1996, dated 2007).
Some of these results come from one statement about several compounds together. For at least one compound, name, drawing or mass did not settle the structure.

Sequences of proteins named here, by UniProt entry; tags and fusion partners are left off. Residues count along the entry.
UniProt O18473, 17-576 E478D: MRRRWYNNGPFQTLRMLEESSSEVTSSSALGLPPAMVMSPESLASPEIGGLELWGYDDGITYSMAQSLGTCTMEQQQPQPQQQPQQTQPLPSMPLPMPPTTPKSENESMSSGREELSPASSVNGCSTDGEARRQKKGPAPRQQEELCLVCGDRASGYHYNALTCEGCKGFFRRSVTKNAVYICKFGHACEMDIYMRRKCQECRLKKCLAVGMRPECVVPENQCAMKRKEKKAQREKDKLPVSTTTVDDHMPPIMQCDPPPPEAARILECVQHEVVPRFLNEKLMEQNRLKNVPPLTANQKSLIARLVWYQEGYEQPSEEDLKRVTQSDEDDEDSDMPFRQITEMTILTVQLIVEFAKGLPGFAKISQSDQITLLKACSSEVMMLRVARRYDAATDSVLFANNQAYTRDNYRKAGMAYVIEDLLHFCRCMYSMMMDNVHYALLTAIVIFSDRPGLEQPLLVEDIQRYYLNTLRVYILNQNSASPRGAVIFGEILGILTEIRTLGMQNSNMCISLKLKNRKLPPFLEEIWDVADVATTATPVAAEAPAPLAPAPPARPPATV

Target: T1, Heliothis virescens ecdysone receptor (HEcR) (Heliothis virescens, UniProt O18473, E478D)
T1 construct: expressed in transfected cells; host or cells: HEK293
Assay: Native HEcR transient reporter gene (β-galactosidase) expression in HEK293 cells
Format: cell-based
Settings: pcDNA3H3 KHEcR (effector) and reporter, no added αRXR

Row | SMILES | induction of reporter activity compared to the no chemical controls
1 | CC(C)CC[C@@H](O)[C@](C)(O)[C@H]1CC[C@@]2(O)C3=CC(=O)[C@]4(O)C[C@@H](O)[C@@H](O)C[C@]4(C)[C@H]3[C@H](O)C[C@]12C [Muristerone A] | 2–3 fold
2 | CCc1ccc(C(=O)NN(C(=O)c2cc(C)cc(C)c2)C(C)(C)C)cc1 [RH5992, 3,5-dimethylbenzoic acid 1-1(1,1-dimethylethyl)-2(4-ethylbenzoyl)hydrazide] | 2–3 fold
